Structures are written as SMILES. The list shows a part of the results.

Here are results for 107 compounds from PubChem BioAssay AID651647 (Sanford-Burnham Center for Chemical Genomics, 2012).

This assay is described as follows: MT1-MMP activation inhibitors, cellular reporter – HT1080 RFP-PRO-GFP cells, GFP/RFP fluorescence, primary screen (AID 651647). Particulars: GFP/RFP ratio fluorescence, overnight, RFP expression control read, at 20 µM. In outline:
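Material: RFP-PRO-GFP reporter HT1080 cells. Dosing: single-point 20 µM compound, 1% DMSO. Controls: DMSO and RFP-L50D-GFP cell wells. Timing: cells overnight before dosing, compound overnight, 37 °C, 5% CO2. Measure: GFP/RFP fluorescence ratio.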
For the compound `N#CC1(Nc2ccccc2)CCN(CCc2ccccc2)CC1`, the RFP signal change turned out to be 5.15%.
With `O=c1[nH]c2ccccc2n1C1CCN(C(c2ccccc2OC(F)(F)F)c2nnnn2C2CCCC2)CC1` (configuration not stated) the figure was -9.46%.
The figure for `CCN1CCC(Nc2ccc(Cl)cc2)CC1` is 1.46%; for `CSc1ccc(C(=O)NCC2(N3CCOCC3)CCCCC2)cc1` it is 4.4%.
The figure for `O=C(NCC1(N2CCCCC2)CCCCC1)c1cccc([N+](=O)[O-])c1` is -1.48%; for `O=C(NCC1(N2CCCCC2)CCCCC1)c1ccc(OC(F)F)cc1` it is 6.22%.
In the case of `CC(C)(C)n1nnnc1C(c1ccccc1OC(F)(F)F)N1CCC(n2c(=O)[nH]c3ccccc32)CC1` (configuration not stated), the RFP signal change is -9.6%.
The figure for `COc1cc(C(=O)NCC2(N3CCCCC3)CCCCC2)ccc1OC(F)F` is 5.55%.
The figure for `O=C(NCC1(N2CCOCC2)CCCCC1)c1cc(=O)[nH]c2ccccc12` is 0.697%; for `CCCCn1nnnc1C(c1cccc2ccccc12)N1CCC(n2c(=O)[nH]c3ccccc32)CC1` (configuration not stated) it is -9.55%.
The figure for `CN1CCN(CCOC(=O)C(O)(c2ccccc2)c2ccccc2)CC1` is -0.113%; for `COc1ccc(NC2CCN(C(=O)OC(C)(C)C)CC2)cc1` it is 3.9%; for `CC(C)c1ccc(C(=O)NCC2(N3CCOCC3)CCCCC2)cc1` it is 5.31%.
Turning to `O=C(NCC1(N2CCCCC2)CCCCC1)c1cccc(C(F)(F)F)c1`, the RFP signal change was -2.53%.
With `CCC(c1nnnn1C(C)(C)C)N1CCC(n2c(=O)[nH]c3ccccc32)CC1` (configuration not stated) the figure was -3.14%; with `O=C(NCC1(N2CCOCC2)CCCCC1)c1cc(F)c(F)cc1Cl`, 2.25%; with `COc1cc(OC)c(C(=O)NCC2(N(C)C)CCCCC2)cc1OC`, 5.17%.
The figure for `CCCCn1nnnc1C(c1ccnc2ccccc12)N1CCC(n2c(=O)[nH]c3ccccc32)CC1` (configuration not stated) is 0.307%; for `CC(C)c1ccc(NC2CCN(C(=O)OC(C)(C)C)CC2)cc1` it is -14.6%; for `CCCCn1nnnc1C(c1ccccc1OC(F)(F)F)N1CCC(n2c(=O)[nH]c3ccccc32)CC1` (configuration not stated) it is -18.2%.
As for `CN(C)c1cccc(C(=O)NCC2(N3CCCCC3)CCCCC2)c1`, the RFP signal change came to 2.32%.
With `COc1ccc(CN(CCCl)CCCl)cc1Cl` the figure was 1.54%.
The figure for `COc1ccc(C(c2nnnn2C2CCCC2)N2CCC(n3c(=O)[nH]c4ccccc43)CC2)cc1` (configuration not stated) is -0.942%; for `CCCOc1ccc(C(=O)NCC2(N(C)C)CCCCC2)cc1OC` it is 2.35%.
With `Cc1ccc(C(=O)NCC2(N(C)C)CCCCC2)o1` the figure was 8.54%; with `O=C(NCC1(N2CCCCC2)CCCCC1)c1cncc(Br)c1`, -0.379%; with `CN1CCC(Nc2cccc(F)c2)CC1`, 3.68%.
Take `Cc1cccc(NC2(C#N)CCN(Cc3ccccc3)CC2)c1`: the RFP signal change was 1.11%.
The figure for `CSc1ccccc1C(=O)NCC1(N2CCCCC2)CCCCC1` is 1.23%; for `CCC(c1nnnn1C1CCCC1)N1CCC(n2c(=O)[nH]c3ccccc32)CC1` (configuration not stated) it is 0.981%; for `COc1ccc(C(=O)NCC2(N3CCCCC3)CCCCC2)c(OC)c1OC` it is 1.91%.
With `CC(C)(C)OC(=O)N1CCC(N(C(=O)c2ccccc2)c2ccc(F)cc2)CC1` the figure was -3.38%; with `COc1ccc(C(=O)NCC2(N3CCCCC3)CCCCC2)cc1`, 5.16%.
With `CCCCn1nnnc1C(c1cccs1)N1CCC(n2c(=O)[nH]c3ccccc32)CC1` (configuration not stated) the figure was -3.53%.
Consider `CCCCn1nnnc1C(CC)N1CCC(n2c(=O)[nH]c3ccccc32)CC1` (configuration not stated), for which the RFP signal change was 0.0545%.
The figure for `O=C(NCC1(N2CCCCC2)CCCCC1)c1cccs1` is 3.75%.
Consider `O=C(NCC1(N2CCCCC2)CCCCC1)c1ccc(=O)[nH]c1`, for which the RFP signal change is -0.296%.
With `COc1ccc(Cl)cc1C(=O)NCC1(N2CCOCC2)CCCCC1` the figure was -2.96%; with `O=C(OC1CN2CCC1CC2)C1c2ccccc2Oc2ccccc21` (configuration not stated), -3.82%.
With `O=c1[nH]c2ccccc2n1C1CCN(C(c2cc3ccccc3o2)c2nnnn2C2CCCCC2)CC1` (configuration not stated) the figure was -15.5%.
The figure for `N#CC1(Nc2ccccc2)CCN(Cc2ccccc2)CC1` is 0.995%; for `O=C(NCC1(N2CCCCC2)CCCCC1)c1ccc(Cl)s1` it is 1.2%; for `CCCCn1nnnc1C(c1ccc(OC)cc1)N1CCC(n2c(=O)[nH]c3ccccc32)CC1` (configuration not stated) it is -5.21%.
With `CCOC(=O)N1CCC(Nc2ccc(OC)cc2)CC1`, the RFP signal change worked out at 1.24%.
The figure for `Cc1cc(C)cc(N(C(=O)c2ccccc2)C2CCN(C(=O)OC(C)(C)C)CC2)c1` is -11.1%; for `O=c1[nH]c2ccccc2n1C1CCN(C(c2ccccc2OC(F)(F)F)c2nnnn2C2CCCCC2)CC1` (configuration not stated) it is -16.9%.
As for `O=C(NCC1(N2CCCCC2)CCCCC1)c1ccc(Cl)nc1`, the RFP signal change is 3.69%.
With `O=C(NCC1(N2CCOCC2)CCCCC1)c1cc2ccccc2o1` the figure was 4.48%; with `COc1ccc(NC2CCN(CCc3ccccc3)CC2)c(OC)c1`, 0.281%; with `CCOC(=O)N1CCC(Nc2ccc(F)cc2)CC1`, 1.89%.
For the compound `O=C(NCC1(N2CCCCC2)CCCCC1)c1ccc(F)cc1`, the RFP signal change is 2.77%.
Regarding `O=P1(N(CCCl)CCCl)SCCCS1`, the RFP signal change is 4.63%.
`CCCCn1nnnc1C(c1cc2ccccc2o1)N1CCC(n2c(=O)[nH]c3ccccc32)CC1` (configuration not stated): the RFP signal change was -22.1%.
The figure for `CCCCOc1ccc(C(=O)NCC2(N3CCOCC3)CCCCC2)cc1` is 0.988%.
Take `O=C1CCN(Cc2ccccc2)CC1`: the RFP signal change turned out to be 2.1%.
The figure for `CC(C)(C)n1nnnc1C(c1ccccc1)N1CCC(n2c(=O)[nH]c3ccccc32)CC1` (configuration not stated) is 1.19%; for `CCOc1ccc(C)cc1CN(CCCl)CCCl` it is -0.262%.
As to `COc1cc(C(=O)NCC2(N(C)C)CCCCC2)ccc1OC(F)F`, the RFP signal change worked out at 2.67%.
As to `CCOC(=O)N1CCC(Nc2cccc(C)c2)CC1`, the RFP signal change was -0.228%.
With `O=c1[nH]c2ccccc2n1C1CCN(C(c2cccc3ccccc23)c2nnnn2C2CCCC2)CC1` (configuration not stated) the figure was -9.66%; with `O=c1[nH]c2ccccc2n1C1CCN(C(c2ccccc2)c2nnnn2C2CCCCC2)CC1` (configuration not stated), -10.3%.
With `Fc1ccccc1NC1CCN(Cc2ccccc2)CC1` the figure was 5.65%.
The figure for `Cc1ccc(C(=O)NCC2(N3CCCCC3)CCCCC2)o1` is 0.436%.
As to `Cc1ccc(NC2(C#N)CCN(Cc3ccccc3)CC2)cc1`, the RFP signal change came to 3.03%.
With `CCC(c1nnnn1C1CCCCC1)N1CCC(n2c(=O)[nH]c3ccccc32)CC1` (configuration not stated) the figure was 0.0153%; with `CC(=O)N(c1ccccc1)C1CCNCC1`, -0.132%.
With `COc1cccc(C(c2nnnn2C2CCCCC2)N2CCC(n3c(=O)[nH]c4ccccc43)CC2)c1OC` (configuration not stated) the figure was -19.6%; with `O=c1[nH]c2ccccc2n1C1CCN(C(c2ccnc3ccccc23)c2nnnn2C2CCCCC2)CC1` (configuration not stated), -4.58%; with `COc1cc(OC)cc(C(=O)NCC2(N3CCCCC3)CCCCC2)c1`, 2.65%.
With `Cn1c(=O)[nH]cc(N(CCCl)CCCl)c1=O` the figure was 4.83%.
Regarding `CN(C)c1ccc(C(=O)NCC2(N3CCCCC3)CCCCC2)cc1`, the RFP signal change was found to be 4.35%.
The figure for `O=C(NCC1(N2CCCCC2)CCCCC1)c1ccco1` is 7.5%.
With `CC(C)(C)n1nnnc1C(c1ccnc2ccccc12)N1CCC(n2c(=O)[nH]c3ccccc32)CC1` (configuration not stated) the figure was -1.78%.
With `COc1ccc(C(c2nnnn2C2CCCCC2)N2CCC(n3c(=O)[nH]c4ccccc43)CC2)cc1` (configuration not stated) the figure was -12.9%; with `CCN1CCC(Nc2cccc(F)c2)CC1`, -2.55%.
`Cc1ccccc1NC1(C#N)CCN(Cc2ccccc2)CC1`: the RFP signal change is -2.02%.
With `O=C(O)C1(Nc2ccccc2)CCN(Cc2ccccc2)CC1` the figure was -2.58%; with `NN(c1ccccc1)C1CCN(CCc2ccccc2)CC1`, 4.06%.
The figure for `CC(C)(C)OC(=O)N1CCC(Nc2ccccc2)CC1` is -5.42%; for `CCCOc1ccc(C(=O)NCC2(N(C)C)CCCCC2)cc1` it is -0.216%; for `O=c1[nH]c2ccccc2n1C1CCN(C(c2cc3ccccc3o2)c2nnnn2C2CCCC2)CC1` (configuration not stated) it is -18.9%.
The figure for `CN1CCC(Nc2ccc(F)c(Cl)c2)CC1` is 5.15%; for `CCOc1ncccc1C(=O)NCC1(N2CCOCC2)CCCCC1` it is -3.4%; for `CN1CCC(Nc2ccc(Cl)cc2)CC1` it is 0.34%.
Take `COc1cccc(C(c2nnnn2C2CCCC2)N2CCC(n3c(=O)[nH]c4ccccc43)CC2)c1OC` (configuration not stated): the RFP signal change was -8.15%.
With `COc1cc(OC)cc(C(=O)NCC2(N3CCOCC3)CCCCC2)c1` the figure was -2.17%; with `COc1cccc(C(=O)N(c2cc(C)cc(C)c2)C2CCN(C(=O)OC(C)(C)C)CC2)c1`, -12.3%; with `CCC(CO)(C(=O)OC1CN2CCC1CC2)c1ccccc1` (configuration not stated), -2.68%.
The figure for `O=c1[nH]c2ccccc2n1C1CCN(C(c2cccs2)c2nnnn2C2CCCCC2)CC1` (configuration not stated) is -7.05%.
With `O=c1[nH]c2ccccc2n1C1CCN(C(c2ccnc3ccccc23)c2nnnn2C2CCCC2)CC1` (configuration not stated) the figure was -4.77%; with `COc1ccc(C(=O)NCC2(N3CCOCC3)CCCCC2)cc1OC`, -0.167%; with `COc1cc(C(=O)NCC2(N3CCOCC3)CCCCC2)cc(OC)c1C`, -0.0903%.
For `CCCCn1nnnc1C(c1ccccc1)N1CCC(n2c(=O)[nH]c3ccccc32)CC1` (configuration not stated), the RFP signal change is 2.63%.
With `O=C(NCC1(N2CCOCC2)CCCCC1)c1cc(Br)ccc1Cl` the figure was -1.58%; with `O=c1[nH]c2ccccc2n1C1CCN(C(c2cccs2)c2nnnn2C2CCCC2)CC1` (configuration not stated), -2.79%.
The figure for `O=C(OC1CN2CCC1CC2)C1c2ccccc2C=Cc2ccccc21` (configuration not stated) is 5.53%.
Turning to `CCCCn1nnnc1C(c1cccc(OC)c1OC)N1CCC(n2c(=O)[nH]c3ccccc32)CC1` (configuration not stated), the RFP signal change was -4.62%.
With `COc1cccc(C(c2nnnn2C(C)(C)C)N2CCC(n3c(=O)[nH]c4ccccc43)CC2)c1OC` (configuration not stated) the figure was 1.77%; with `CCOC(=O)N1CCC(Nc2ccc(C)cc2)CC1`, 0.795%.
In the case of `N/C(=N\O)c1c(N)no[n+]1[O-]`, the RFP signal change was determined as 4.42%.
The figure for `N#Cc1ccc(C(=O)NCC2(N3CCCCC3)CCCCC2)cc1` is -1.35%.
The figure for `CC(C)(C)n1nnnc1C(c1cccc2ccccc12)N1CCC(n2c(=O)[nH]c3ccccc32)CC1` (configuration not stated) is -11.8%; for `CN(C)C1(CNC(=O)c2cccc(C#N)c2)CCCCC1` it is 1.21%; for `CCCN1CCC(Nc2cc(OC)cc(OC)c2)CC1` it is 3.97%.
With `O=c1[nH]c2ccccc2n1C1CCN(C(c2ccccc2)c2nnnn2C2CCCC2)CC1` (configuration not stated) the figure was -6.18%; with `Cc1cc(N(CCCl)CCCl)ccc1C=O`, -1.64%; with `c1ccc(CN2CCC(Nc3ccccc3)CC2)cc1`, -1.15%.
